Source: PubChem BioAssay AID248 (DTP/NCI, 2004)
The list does not hold the whole screen: it gathers tests that were run many times, whatever their T/C, doses with no T/C, and many T/C values between a quarter and a half above the control. Further doses and runs are listed elsewhere. T/C is the treated group as % of the vehicle group. Some doses have a count of surviving animals in place of a T/C: the source holds a T/C of zero for them, seemingly a mark for toxic or unscored doses. Some doses without a T/C left all or most animals alive at the check, yet need not have been tolerated: survival well below the control is almost never listed, so the zero probably covers shortened survival too. Counts of survivors are from the toxicity check (mostly the fifth day) where no day follows; animals may have died later. Schedule codes are those of the source, read here as Q, the interval in days (D) or hours (H), X, the number of doses. Some entries were tested several times; the values are given in rising order. Some schedule codes hold Z or #, which are not explained here. Where survival is the endpoint, this PubChem deposit counts one and a half times the control or more as active, and values a quarter to a half above the control carry no call in these data; other NCI protocols may use other cut-offs. Some T/C values are followed by the survivors on the day toxicity was checked, most often the fifth; where none is given, no animal had died by that day.

Tested on: L1210 leukemia ip in BDF1 mice, survival T/C
Test: NCI In Vivo Anticancer Drug Screen. Data for tumor model L1210 Leukemia (intraperitoneal) in B6D2F1 (BDF1) mice
Conditions: T/C endpoint: mean survival time, higher T/C = longer survival
[1] = dose: 400.0 mg/kg/injection, schedule: Q01DX009 (ip), vehicle: other

CN=C(NC)Nc1ccc(NC(=O)c2ccc(C(=O)Nc3ccc(NC(=NC)NC)cc3)cc2)cc1
T/C (dose: 9.0 mg/kg/injection, schedule: Q01DX Z (oral), vehicle: carboxymethylcellulose (CMC)): 127 % of control | T/C (dose: 13.0 mg/kg/injection, schedule: Q01DX Z (ip), vehicle: carboxymethylcellulose (CMC)): 125 % of control | T/C (dose: 17.0 mg/kg/injection, schedule: Q01DX001 (ip), vehicle: carboxymethylcellulose (CMC)): 135 % of control | T/C (dose: 17.0 mg/kg/injection, schedule: Q01DX001 (ip), vehicle: other): 128 % of control | T/C (dose: 26.0 mg/kg/injection, schedule: Q01DX001 (ip), vehicle: carboxymethylcellulose (CMC)): 143 % of control | T/C (dose: 26.0 mg/kg/injection, schedule: Q01DX001 (ip), vehicle: other): 131 % of control | T/C (dose: 39.0 mg/kg/injection, schedule: Q01DX001 (ip), vehicle: carboxymethylcellulose (CMC)): 146 % of control | survivor count (dose: 53.0 mg/kg/injection, schedule: Q01DX Z (ip), vehicle: carboxymethylcellulose (CMC)): 2 of 6 | survivor count (dose: 107.0 mg/kg/injection, schedule: Q01DX Z (ip), vehicle: carboxymethylcellulose (CMC)): 1 of 6 | survivor count (dose: 215.0 mg/kg/injection, schedule: Q01DX Z (ip), vehicle: carboxymethylcellulose (CMC)): 0 of 6 | survivor count (dose: 430.0 mg/kg/injection, schedule: Q01DX Z (ip), vehicle: carboxymethylcellulose (CMC)): 0 of 6

Cc1ccccc1NC(=O)C1CCCC1=O (stereo unspecified)
survivor count (dose: 200.0 mg/kg/injection, schedule: Q01DX001 (ip), vehicle: saline): 4 of 4

O=C(CCCCN1CCc2[nH]c3ccc(F)cc3c2C1)c1ccc(F)cc1
survivor count (dose: 100.0 mg/kg/injection, schedule: Q01DX009 (ip), vehicle: other): 0 of 6 | survivor count (dose: 200.0 mg/kg/injection, schedule: Q01DX009 (ip), vehicle: other): 0 of 6 | survivor count [1]: 0 of 6

CC(C)=CCN(CC=C(C)C)CCC(CC=C(C)C)(C(N)=O)c1cccc2ccccc12 (stereo unspecified)
survivor count (dose: 100.0 mg/kg/injection, schedule: Q01DX009 (ip), vehicle: Klucel (hydroxypropylcellulose) (HPC)): 3 of 6 | survivor count (dose: 200.0 mg/kg/injection, schedule: Q01DX009 (ip), vehicle: Klucel (hydroxypropylcellulose) (HPC)): 0 of 6 | survivor count (dose: 400.0 mg/kg/injection, schedule: Q01DX009 (ip), vehicle: Klucel (hydroxypropylcellulose) (HPC)): 0 of 6

CC(C)C(=O)[O][Pb]([CH3])([CH3])[CH3]
survivor count (dose: 25.0 mg/kg/injection, schedule: Q04DX002 (ip), vehicle: saline): 2 of 3 | survivor count (dose: 50.0 mg/kg/injection, schedule: Q04DX002 (ip), vehicle: saline): 0 of 3 | survivor count (dose: 100.0 mg/kg/injection, schedule: Q04DX002 (ip), vehicle: saline): 0 of 3 | survivor count (dose: 200.0 mg/kg/injection, schedule: Q04DX002 (ip), vehicle: saline): 0 of 3 | survivor count (dose: 400.0 mg/kg/injection, schedule: Q04DX002 (ip), vehicle: saline): 0 of 3

Clc1c2ccccc2c(Cl)c2ccccc12
survivor count (dose: 6.25 mg/kg/injection, schedule: Q04DX002 (ip), vehicle: Klucel (hydroxypropylcellulose) (HPC)): 3 of 3 | survivor count (dose: 25.0 mg/kg/injection, schedule: Q04DX002 (ip), vehicle: Klucel (hydroxypropylcellulose) (HPC)): 3 of 3 | survivor count (dose: 50.0 mg/kg/injection, schedule: Q04DX002 (ip), vehicle: Klucel (hydroxypropylcellulose) (HPC)): 3 of 3 | survivor count (dose: 100.0 mg/kg/injection, schedule: Q04DX002 (ip), vehicle: Klucel (hydroxypropylcellulose) (HPC)): 3 of 3

CNCCC(=O)NCC1C(c2ccccc2)C1c1ccccc1 (stereo unspecified)
survivor count (dose: 25.0 mg/kg/injection, schedule: Q04DX002 (ip), vehicle: saline with Tween-80): 3 of 3 | survivor count (dose: 50.0 mg/kg/injection, schedule: Q04DX002 (ip), vehicle: saline with Tween-80): 3 of 3 | survivor count (dose: 200.0 mg/kg/injection, schedule: Q04DX002 (ip), vehicle: saline with Tween-80): 0 of 3 | survivor count (dose: 400.0 mg/kg/injection, schedule: Q04DX002 (ip), vehicle: saline with Tween-80): 0 of 3

Nc1nc(Cl)c(N=Nc2ccccc2)c(=O)[nH]1
T/C (dose: 100.0 mg/kg/injection, schedule: Q01DX009 (ip), vehicle: carboxymethylcellulose (CMC)): 91, 95, 100, 109 % of control | survivor count (dose: 200.0 mg/kg/injection, schedule: Q01DX009 (ip), vehicle: carboxymethylcellulose (CMC)): 3 of 3 and 6 of 6 | survivor count (dose: 200.0 mg/kg/injection, schedule: Q04DX002 (ip), vehicle: carboxymethylcellulose (CMC)): 3 of 3 | survivor count (dose: 400.0 mg/kg/injection, schedule: Q01DX009 (ip), vehicle: carboxymethylcellulose (CMC)): 2 of 3 and 5 of 6

Cn1cnc([N+](=O)[O-])c1Sc1ncnc2c1ncn2C1OC(CO)C(O)C1O (stereo unspecified)
T/C (dose: 70.0 mg/kg/injection, schedule: Q01DX009 (ip), vehicle: saline): 132 % of control | T/C (dose: 135.0 mg/kg/injection, schedule: Q01DX009 (ip), vehicle: saline): 146 % of control | T/C (dose: 150.0 mg/kg/injection, schedule: Q04DX003 (ip), vehicle: Klucel (hydroxypropylcellulose) (HPC)): 128 % of control | T/C (dose: 268.0 mg/kg/injection, schedule: Q01DX009 (ip), vehicle: other): 147 % of control | T/C [1]: 141 % of control | T/C (dose: 400.0 mg/kg/injection, schedule: Q01DX009 (ip), vehicle: saline): 125 % of control | survivor count (dose: 600.0 mg/kg/injection, schedule: Q01DX009 (ip), vehicle: other): 5 of 5 | T/C (dose: 600.0 mg/kg/injection, schedule: Q04DX003 (ip), vehicle: Klucel (hydroxypropylcellulose) (HPC)): 139 % of control

N=c1ccccn1CC(O)COc1cccc([N+](=O)[O-])c1 (stereo unspecified)
survivor count (dose: 400.0 mg/kg/injection, schedule: Q04DX002 (ip), vehicle: other): 0 of 3

CCCOC(=O)C1(N)CCCC1
T/C (dose: 66.0 mg/kg/injection, schedule: Q01DX Z (ip), vehicle: saline): 133 % of control | T/C (dose: 125.0 mg/kg/injection, schedule: Q01DX Z (ip), vehicle: carboxymethylcellulose (CMC)): 134 % of control | T/C (dose: 200.0 mg/kg/injection, schedule: Q04DX003 (ip), vehicle: Klucel (hydroxypropylcellulose) (HPC)): 140 % of control | T/C (dose: 400.0 mg/kg/injection, schedule: Q01DX001 (ip), vehicle: Klucel (hydroxypropylcellulose) (HPC)): 139 and 140 % of control | T/C (dose: 600.0 mg/kg/injection, schedule: Q01DX001 (ip), vehicle: Klucel (hydroxypropylcellulose) (HPC)): 145 % of control [5 of 6 alive] | T/C (dose: 800.0 mg/kg/injection, schedule: Q01DX001 (ip), vehicle: Klucel (hydroxypropylcellulose) (HPC)): 142 % of control | survivor count (dose: 1200.0 mg/kg/injection, schedule: Q01DX001 (ip), vehicle: Klucel (hydroxypropylcellulose) (HPC)): 0 of 6
